PMC8268055
No constants are given. Whether binding was seen depends on the method and setting. For part of these data: In cells and extracts the contact can be indirect. Some results given as binding are weak or reduced against the parent protein; the word gives no strength.

By UniProt entry, the sequences of proteins in these tests, tags left out. Where a name states a change or a piece, a line headed by the entry shows the natural chain unless it says otherwise. Chains listed by the source or under a name are the forms on record and can include a tag or linker. Residues count along the entry.
UniProt O75056: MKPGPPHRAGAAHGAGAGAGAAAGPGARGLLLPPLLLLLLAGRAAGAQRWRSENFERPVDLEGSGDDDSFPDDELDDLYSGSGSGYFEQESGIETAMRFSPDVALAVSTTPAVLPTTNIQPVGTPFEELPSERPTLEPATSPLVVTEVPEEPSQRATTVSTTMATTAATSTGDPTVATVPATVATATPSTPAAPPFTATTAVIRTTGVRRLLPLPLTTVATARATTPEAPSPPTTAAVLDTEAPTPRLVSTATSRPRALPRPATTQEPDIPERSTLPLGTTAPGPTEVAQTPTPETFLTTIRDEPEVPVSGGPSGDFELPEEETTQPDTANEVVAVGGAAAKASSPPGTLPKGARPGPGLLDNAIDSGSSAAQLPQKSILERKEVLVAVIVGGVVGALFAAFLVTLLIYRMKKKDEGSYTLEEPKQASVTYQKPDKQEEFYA
UniProt P34741, residues 19-201: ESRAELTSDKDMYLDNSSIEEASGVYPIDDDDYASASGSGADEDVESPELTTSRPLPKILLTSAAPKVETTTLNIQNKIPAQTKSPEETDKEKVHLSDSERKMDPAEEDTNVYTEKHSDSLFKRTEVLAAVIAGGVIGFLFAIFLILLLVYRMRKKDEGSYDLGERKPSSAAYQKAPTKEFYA
FITC-labeled apolipoprotein E3 (P02649, residues 19-317): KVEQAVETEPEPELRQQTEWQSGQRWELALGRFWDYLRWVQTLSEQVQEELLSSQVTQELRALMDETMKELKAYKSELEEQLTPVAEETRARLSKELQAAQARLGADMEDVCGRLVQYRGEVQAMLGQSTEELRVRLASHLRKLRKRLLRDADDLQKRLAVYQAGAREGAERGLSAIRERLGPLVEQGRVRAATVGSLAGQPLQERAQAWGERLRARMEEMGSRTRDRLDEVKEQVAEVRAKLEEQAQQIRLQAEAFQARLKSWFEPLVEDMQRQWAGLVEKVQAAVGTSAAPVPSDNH
FITC-labeled apolipoprotein E2 (P02649, form named): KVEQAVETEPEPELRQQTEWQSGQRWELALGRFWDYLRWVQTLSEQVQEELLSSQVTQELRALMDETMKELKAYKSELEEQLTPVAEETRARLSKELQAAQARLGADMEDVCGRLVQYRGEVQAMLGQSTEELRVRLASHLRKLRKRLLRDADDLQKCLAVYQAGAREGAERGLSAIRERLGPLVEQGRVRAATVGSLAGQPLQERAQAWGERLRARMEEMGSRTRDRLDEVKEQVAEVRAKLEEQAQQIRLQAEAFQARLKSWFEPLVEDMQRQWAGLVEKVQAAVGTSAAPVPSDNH
FITC-labeled apolipoprotein E4 (P02649, form named): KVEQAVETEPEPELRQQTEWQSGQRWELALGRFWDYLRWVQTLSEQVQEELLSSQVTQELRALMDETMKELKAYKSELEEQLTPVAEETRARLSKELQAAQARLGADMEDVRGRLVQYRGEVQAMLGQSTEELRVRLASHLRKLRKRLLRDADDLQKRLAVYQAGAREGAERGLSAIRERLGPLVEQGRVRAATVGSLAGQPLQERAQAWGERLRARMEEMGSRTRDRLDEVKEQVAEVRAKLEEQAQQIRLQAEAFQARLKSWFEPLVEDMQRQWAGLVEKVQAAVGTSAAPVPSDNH

What was measured:
[1] = molecular target: Syndecan-3, full length, stable transfectant in K562 cells (UniProt O75056); experiment: co-IP; SDC3 transfectants in K562 incubated with 500 nM FITC-ApoE for 18 h at 37 °C, lysed in Pierce IP lysis buffer; precipitated with human SDC3 antibody and Protein A/G magnetic beads; FITC-ApoE seen on SDS-PAGE by fluorescence imaging; only the binder purified
[2] = molecular target: Syndecan-3, endogenous in differentiated SH-SY5Y cells (human (endogenous in SH-SY5Y)) (UniProt O75056); experiment: co-IP; differentiated WT SH-SY5Y cells incubated with 500 nM FITC-ApoE for 18 h at 37 °C, lysed in Pierce IP lysis buffer; precipitated with human SDC3 antibody and Protein A/G magnetic beads; FITC-ApoE seen on SDS-PAGE by fluorescence imaging; only the binder purified
[3] = molecular target: T1, Syndecan-1, full length, stable transfectant in K562 cells (UniProt P18827); experiment: flow cytometry on cells; WT K562 cells and SDC1-4 transfectants (standardised for HS expression) incubated with 500 nM FITC-ApoE for 3 h at 37 °C in DMEM/F12 with 10% FCS; overall cellular fluorescence (not quenched with trypan blue) compared with WT K562 cells; only the binder purified
T1 sequence: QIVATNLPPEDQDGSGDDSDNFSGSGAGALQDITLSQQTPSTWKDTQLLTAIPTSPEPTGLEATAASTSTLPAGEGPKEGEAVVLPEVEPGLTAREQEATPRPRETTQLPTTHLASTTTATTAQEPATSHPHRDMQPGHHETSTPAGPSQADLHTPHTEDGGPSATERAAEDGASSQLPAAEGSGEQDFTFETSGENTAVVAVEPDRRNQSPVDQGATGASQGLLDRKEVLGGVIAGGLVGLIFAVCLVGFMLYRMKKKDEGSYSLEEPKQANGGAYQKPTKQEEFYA

[4] = molecular target: Syndecan-2, full length, stable transfectant in K562 cells (UniProt P34741); experiment: as above
[5] = molecular target: Syndecan-3, full length, stable transfectant in K562 cells (UniProt O75056); experiment: as above
[6] = molecular target: T2, Syndecan-4, full length, stable transfectant in K562 cells (UniProt P31431); experiment: as above
T2 sequence: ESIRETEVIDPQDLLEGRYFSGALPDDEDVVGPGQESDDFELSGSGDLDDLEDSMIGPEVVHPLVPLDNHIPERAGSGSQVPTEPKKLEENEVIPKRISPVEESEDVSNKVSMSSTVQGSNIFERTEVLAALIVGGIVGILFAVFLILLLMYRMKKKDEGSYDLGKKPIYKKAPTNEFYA

Measured: binding

FITC-labeled apolipoprotein E2 (from UniProt P02649 19-317)
binds: [1] | [2] | [3] | [4] | [5] | [6]

FITC-labeled apolipoprotein E3 (from UniProt P02649 19-317)
binds: [1] | [2] | [3] | [4] | [5] | [6]

FITC-labeled apolipoprotein E4 (from UniProt P02649 19-317)
binds: [1] | [2] | [3] | [4] | [5] | [6]
